# Test results from paper PMC11589570, “Critical assessment of LC3/GABARAP ligands used for degrader development and ligandability of LC3/GABARAP binding pockets” (Nature Communications, 2024).
# Values joined by “and” are separate entries in the source; they are usually repeats but may differ in a detail not shown here. Identical values can stand only once. The source gives many values for each of these; only a part stands here.
# Tested on: RPE1 cells
# Assay: Cell growth assay (IncuCyte confluence over 72 h)
# Assay type: cell-based
# Method: Cell growth assay: Cell confluence (phase) from RPE1 (hTERT RPE-1, ATCC CLR_4000) or U2OS (ATCC, HTB-96) cell lines were monitored over time with the IncuCyte S3 (Sartiorius, Germany) in 384-well plates in 50 ul DMEM media, supplemented with 10% Fetal Bovine Serum (FBS) 1% penicillin/Streptomycin and incubated 24 h before treatment. Experiment was performed as described in Cano-Franco et al.. 50 μl of media containing either 2× final concentration of indicated compounds in or control compounds (final conc.: 0.1% DMSO, 250 nM Torin1, 200 ng/mL Bafilomycin) were added and images were taken every two hours over 72 h. Cell confluence is represented as % of area covered by cells. Each data point represents the average ratio or confluence obtained from three individual wells of the plate.
compound,measurement,setting,value
O=C1Nc2ccc(Br)cc2C1=Cc1cc(O)c(O)c(Br)c1 [compound 1],RPE1 cell growth,"500 nM, time 22 h, listed as AN1",56 and 30 and 36
same,RPE1 cell growth,"500 nM, time 24 h, listed as AN1",63 and 32 and 38
same,RPE1 cell growth,"500 nM, time 26 h, listed as AN1",66 and 35 and 41
same,RPE1 cell growth,"500 nM, time 28 h, listed as AN1",70 and 38 and 41
same,RPE1 cell growth,"500 nM, time 30 h, listed as AN1",76 and 41 and 46
same,RPE1 cell growth,"500 nM, time 32 h, listed as AN1",81 and 45 and 50
same,RPE1 cell growth,"500 nM, time 34 h, listed as AN1",83 and 48 and 55
same,RPE1 cell growth,"500 nM, time 36 h, listed as AN1",87 and 50 and 58
same,RPE1 cell growth,"500 nM, time 38 h, listed as AN1",89 and 53 and 62
same,RPE1 cell growth,"500 nM, time 40 h, listed as AN1",92 and 57 and 65
same,RPE1 cell growth,"500 nM, time 42 h, listed as AN1",94 and 60 and 70
same,RPE1 cell growth,"500 nM, time 44 h, listed as AN1",97 and 65 and 75
same,RPE1 cell growth,"500 nM, time 46 h, listed as AN1",98 and 69 and 79
same,RPE1 cell growth,"500 nM, time 48 h, listed as AN1",99 and 73 and 84
same,RPE1 cell growth,"500 nM, time 50 h, listed as AN1",99 and 79 and 86
same,RPE1 cell growth,"500 nM, time 52 h, listed as AN1",100 and 84 and 90
same,RPE1 cell growth,"500 nM, time 54 h, listed as AN1",100 and 89 and 92
same,RPE1 cell growth,"500 nM, time 56 h, listed as AN1",100 and 91 and 95
same,RPE1 cell growth,"500 nM, time 58 h, listed as AN1",100 and 94 and 97
same,RPE1 cell growth,"500 nM, time 60 h, listed as AN1",100 and 96 and 98
same,RPE1 cell growth,"500 nM, time 62 h, listed as AN1",100 and 97 and 99
same,RPE1 cell growth,"500 nM, time 64 h, listed as AN1",100 and 99
same,RPE1 cell growth,"500 nM, time 66 h",100
same,RPE1 cell growth,"500 nM, time 68 h",100
same,RPE1 cell growth,"500 nM, time 70 h",100
same,RPE1 cell growth,"500 nM, time 72 h",100
same,RPE1 cell growth,"1 uM, 0 h, listed as AN1",16 and 29 and 20
same,RPE1 cell growth,"1 uM, 2 h, listed as AN1",18 and 34 and 20
same,RPE1 cell growth,"1 uM, 4 h, listed as AN1",20 and 36 and 21
same,RPE1 cell growth,"1 uM, 6 h, listed as AN1",21 and 40 and 22
same,RPE1 cell growth,"1 uM, 8 h, listed as AN1",23 and 42 and 22
same,RPE1 cell growth,"1 uM, 20 h, listed as AN1",48 and 35
same,RPE1 cell growth,"1 uM, 22 h, listed as AN1",33 and 54 and 39
same,RPE1 cell growth,"1 uM, 24 h, listed as AN1",35 and 60 and 40
same,RPE1 cell growth,"1 uM, 26 h, listed as AN1",37 and 62 and 44
same,RPE1 cell growth,"1 uM, 28 h, listed as AN1",38 and 67 and 46
same,RPE1 cell growth,"1 uM, 30 h, listed as AN1",41 and 67 and 50
same,RPE1 cell growth,"1 uM, 32 h, listed as AN1",45 and 75 and 54
same,RPE1 cell growth,"1 uM, 34 h, listed as AN1",49 and 79 and 56
same,RPE1 cell growth,"1 uM, 36 h, listed as AN1",52 and 81 and 61
same,RPE1 cell growth,"1 uM, 38 h, listed as AN1",55 and 84 and 64
same,RPE1 cell growth,"1 uM, 40 h, listed as AN1",59 and 77 and 69
same,RPE1 cell growth,"1 uM, 42 h, listed as AN1",60 and 90 and 72
same,RPE1 cell growth,"1 uM, 44 h, listed as AN1",67 and 93 and 78
same,RPE1 cell growth,"1 uM, 46 h, listed as AN1",72 and 94 and 82
same,RPE1 cell growth,"1 uM, 48 h, listed as AN1",76 and 97 and 87
same,RPE1 cell growth,"1 uM, 50 h, listed as AN1",81 and 98 and 91
same,RPE1 cell growth,"1 uM, 52 h, listed as AN1",84 and 66 and 95
same,RPE1 cell growth,"1 uM, 54 h, listed as AN1",88 and 99 and 97
same,RPE1 cell growth,"1 uM, 56 h, listed as AN1",91 and 99 and 98
same,RPE1 cell growth,"1 uM, 58 h, listed as AN1",94 and 100 and 99
same,RPE1 cell growth,"1 uM, 60 h, listed as AN1",96 and 100
same,RPE1 cell growth,"1 uM, 62 h, listed as AN1",98 and 100
same,RPE1 cell growth,"1 uM, 64 h, listed as AN1",98 and 100
same,RPE1 cell growth,"1 uM, 66 h, listed as AN1",99 and 100
same,RPE1 cell growth,"1 uM, 68 h, listed as AN1",99 and 100
same,RPE1 cell growth,"1 uM, 70 h",100
same,RPE1 cell growth,"1 uM, 72 h",100
same,RPE1 cell growth,"1 uM, time 20 h, listed as AN1",35 and 45 and 34
same,RPE1 cell growth,"1 uM, time 22 h, listed as AN1",38 and 48
same,RPE1 cell growth,"1 uM, time 24 h, listed as AN1",40 and 56 and 39
same,RPE1 cell growth,"1 uM, time 26 h, listed as AN1",42 and 58 and 43
same,RPE1 cell growth,"1 uM, time 28 h, listed as AN1",44 and 63 and 48
same,RPE1 cell growth,"1 uM, time 30 h, listed as AN1",47 and 69 and 52
same,RPE1 cell growth,"1 uM, time 32 h, listed as AN1",52 and 71 and 55
same,RPE1 cell growth,"1 uM, time 34 h, listed as AN1",56 and 74 and 59
same,RPE1 cell growth,"1 uM, time 36 h, listed as AN1",58 and 79 and 63
same,RPE1 cell growth,"1 uM, time 38 h, listed as AN1",63 and 83 and 67
same,RPE1 cell growth,"1 uM, time 40 h, listed as AN1",69 and 87 and 71
same,RPE1 cell growth,"1 uM, time 42 h, listed as AN1",73 and 90 and 74
same,RPE1 cell growth,"1 uM, time 44 h, listed as AN1",77 and 92 and 81
same,RPE1 cell growth,"1 uM, time 46 h, listed as AN1",81 and 94 and 84
same,RPE1 cell growth,"1 uM, time 48 h, listed as AN1",87 and 97 and 89
same,RPE1 cell growth,"1 uM, time 50 h, listed as AN1",90 and 98 and 93
same,RPE1 cell growth,"1 uM, time 52 h, listed as AN1",93 and 99 and 95
same,RPE1 cell growth,"1 uM, time 54 h, listed as AN1",95 and 99 and 98
same,RPE1 cell growth,"1 uM, time 56 h, listed as AN1",97 and 99
same,RPE1 cell growth,"1 uM, time 58 h, listed as AN1",99 and 100
same,RPE1 cell growth,"1 uM, time 60 h, listed as AN1",99 and 100
same,RPE1 cell growth,"1 uM, time 62 h",100
same,RPE1 cell growth,"1 uM, time 64 h",100
same,RPE1 cell growth,"1 uM, time 66 h",100
same,RPE1 cell growth,"1 uM, time 68 h",100
same,RPE1 cell growth,"1 uM, time 70 h",100
same,RPE1 cell growth,"1 uM, time 72 h",100
same,RPE1 cell growth,"3 uM, 0 h, listed as AN1",25 and 26 and 19
